From publication doi:10.1101/2022.05.16.492168
Results are given in words; binding and its absence hold for the method and conditions named. Binding seen in cells or lysates may run through a third protein. Here binding means that the protein was enriched with, or labelled near, the bait; the list need not be complete. Tags and fused reporters may be left off the sequences shown.

T1: LNK2-HFC (NIGHT LIGHT INDUCIBLE AND CLOCK REGULATED 2 with 3x-FLAG-6x-His C-terminal tag) (Arabidopsis thaliana) (UniProt F4JCX9)
T1 sequence: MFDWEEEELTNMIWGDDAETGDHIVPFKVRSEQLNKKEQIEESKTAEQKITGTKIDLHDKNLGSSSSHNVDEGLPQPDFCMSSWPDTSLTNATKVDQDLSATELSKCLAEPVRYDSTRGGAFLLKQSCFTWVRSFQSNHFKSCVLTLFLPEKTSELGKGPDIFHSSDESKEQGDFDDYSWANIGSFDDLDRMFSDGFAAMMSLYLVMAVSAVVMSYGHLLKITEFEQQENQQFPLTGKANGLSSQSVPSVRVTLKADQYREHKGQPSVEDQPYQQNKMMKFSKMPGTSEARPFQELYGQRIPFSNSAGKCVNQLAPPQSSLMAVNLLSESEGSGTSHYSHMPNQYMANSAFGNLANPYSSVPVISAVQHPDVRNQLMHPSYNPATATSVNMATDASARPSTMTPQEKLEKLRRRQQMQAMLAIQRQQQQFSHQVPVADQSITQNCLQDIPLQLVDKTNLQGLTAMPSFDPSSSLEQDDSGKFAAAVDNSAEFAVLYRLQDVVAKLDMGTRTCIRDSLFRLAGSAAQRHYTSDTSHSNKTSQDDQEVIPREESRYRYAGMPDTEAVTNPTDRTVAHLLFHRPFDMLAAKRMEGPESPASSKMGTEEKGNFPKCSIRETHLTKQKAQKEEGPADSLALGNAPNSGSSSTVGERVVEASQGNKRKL

T2: LNK1-HFC (NIGHT LIGHT INDUCIBLE AND CLOCK REGULATED 1 with 3x-FLAG-6x-His C-terminal tag) (Arabidopsis thaliana) (UniProt A8MQN2)
T2 sequence: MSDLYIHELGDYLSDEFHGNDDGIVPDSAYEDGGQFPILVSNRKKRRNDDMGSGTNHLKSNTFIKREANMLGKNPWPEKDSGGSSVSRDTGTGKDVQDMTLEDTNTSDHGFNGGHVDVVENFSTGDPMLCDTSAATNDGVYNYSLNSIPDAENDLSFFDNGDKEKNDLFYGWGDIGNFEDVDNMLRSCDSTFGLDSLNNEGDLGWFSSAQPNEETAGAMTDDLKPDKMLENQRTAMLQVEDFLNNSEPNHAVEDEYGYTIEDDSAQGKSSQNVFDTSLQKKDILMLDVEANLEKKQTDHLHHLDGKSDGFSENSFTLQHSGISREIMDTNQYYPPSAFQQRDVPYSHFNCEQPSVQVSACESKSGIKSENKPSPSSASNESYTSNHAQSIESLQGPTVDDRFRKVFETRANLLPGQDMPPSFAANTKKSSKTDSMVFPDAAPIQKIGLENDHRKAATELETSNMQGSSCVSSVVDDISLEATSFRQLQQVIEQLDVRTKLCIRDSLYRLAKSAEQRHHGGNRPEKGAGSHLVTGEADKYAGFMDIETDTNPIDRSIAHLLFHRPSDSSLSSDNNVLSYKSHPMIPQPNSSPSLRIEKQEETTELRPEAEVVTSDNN

T3: GFP-COR28 (COLD REGULATED GENE 28) (Arabidopsis thaliana) (UniProt Q8L983)
T3 sequence: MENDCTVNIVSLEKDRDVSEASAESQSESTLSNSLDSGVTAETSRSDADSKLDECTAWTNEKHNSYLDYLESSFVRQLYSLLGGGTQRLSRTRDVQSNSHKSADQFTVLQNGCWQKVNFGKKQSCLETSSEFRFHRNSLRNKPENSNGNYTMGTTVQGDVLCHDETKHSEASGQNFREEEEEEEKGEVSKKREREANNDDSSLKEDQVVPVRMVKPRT


Columns and labels:
Assay in all cases: affinity purification with mass spectrometry
[1] = molecular target: T1, LNK2-HFC (NIGHT LIGHT INDUCIBLE AND CLOCK REGULATED 2 with 3x-FLAG-6x-His C-terminal tag) (Arabidopsis thaliana)
[2] = molecular target: T2, LNK1-HFC (NIGHT LIGHT INDUCIBLE AND CLOCK REGULATED 1 with 3x-FLAG-6x-His C-terminal tag) (Arabidopsis thaliana)
[3] = molecular target: T3, GFP-COR28 (COLD REGULATED GENE 28) (Arabidopsis thaliana)

Row | binding [1] | binding [2] | binding [3] | Binder
1 | binds | binds | – | REVEILLE 8 (RVE8), endogenous (protein, UniProt Q8RWU3 1-298) MSSSPSRNPTNAEAPPPPPTSTDAVAEGSSKKVRKPYTITKSRESWTEEEHDKFLEALQLFDRDWKKIEDFVGSKTVIQIRSHAQKYFLKVQKNGTLAHVPPPRPKRKAAHPYPQKASKNAQMPLQVSTSFTTTRNGDMPGYASWDDASMLLNRVISPQHELATLRGAEADIGSKGLLNVSSPSTSGMGSSSRTVSGSEIVRKAKQPPVLHGVPDFAEVYNFIGSVFDPETRGHVEKLKEMDPINFETVLLLMRNLTVNLSNPDLESTRKVLLSYDNVTTELPSVVSLVKNSTSDKSA
2 | – | – | binds | SPA2 (protein, UniProt Q9T014 1-1036) MMDEGSVGDVSRIDEADVAHLQFKNSEQSFKPENIEVREVKEVQVQREAGSPDCSYGVIADFLDGKNGGDHVELIGNEPCSSRQNTNDEGDVVEELTVKTCEGSSMAIVGRPSSRARLEMNRSQFLHRFPLDGDLPGSSSMSKKVIDRGTVSILRNAGKMSLPETSNGQLAIIAVNGEANEHLTNVERNPVPVEALSHEGIKTKMLSQSGFSQFFVRKTLKGKGVTFRGPPNNRSKARNMDQQTVASSGSALVIANTSAKISSSIPLAAYDGLPCLPSNTSKPSSCANPSDTHRGCGGEGLSLREWLKSERQEVNKAECMYIFRQIVDHVDCSHSQGVVLCDLRPSSFKIFKENAVKYVVSGSQRESFDSNMNKETLSQLENPLVRRRLGDTSSLSIPAKKQKSSGPSSRQWPMFQRAGGVNIQTENNDGAIQEFHFRSSQPHCSTVACPFTSVSEQLEEKWYASPEELRGDMRSASSNIYSLGILLYELLSQFQCERAREAAMSDIRHRILPPKFLSENPKEAGFCLWLLHPESSCRPSTRDILQSEVVNGIPDLYAEGLSLSIEQEDTESELLQHFLFLSQEKRQKHAGNLMEEIASVEADIEEIVKRRCAIGPPSLEEASSSSPASSVPEMRLIRNINQLESAYFAARIDAHLPEARYRLRPDRDLLRNSDNTVAEVENSETWSSDDRVGAFFDGLCKYARYSKFETRGVLRTSELNNTSNVICSLGFDRDEDYFATAGVSKKIKIYEFNSLFNESVDIHYPAIEMPNRSKLSGVCWNNYIRNYLASSDYDGIVKLWDVTTGQAISHFIEHEKRAWSVDFSEACPTKLASGSDDCSVKLWNINERNCLGTIRNIANVCCVQFSPQSSHLLAFGSSDFRTYCYDLRNLRTPWCILSGHNKAVSYAKFLDNETLVTASTDNTLKLWDLKKTTHGGLSTNACSLTFGGHTNEKNFVGLSTSDGYIACGSETNEVYAYHRSLPMPITSYKFGSIDPISGKEIEEDNNLFVSSVCWRKRSNMVVSASSNGSIKVLQLV
3 | – | – | binds | SPA3 (protein, UniProt Q9LJR3 1-845) MEGSSNSNSRGFNTSGVSDRNTEFLPVERLTTRSKPSSHVDEYVRSLFGSTSTHKSGEDDSLGIDPFVRSLEWGDVSLRQWLDKPERSVDVFECLHVFRQIVEIVNAAHSQGIVVHNVRPSCFVMSSFNHVSFIESASCSDSGSDSLEDGPISQKEIGSSRREEAVSKAIAIEEKGVYNKLLERKIEKLEEEKTQPFPMKHILAMETSWYTSPEEDFGSSSTCASDVYRLGVLLFELFCPVPSREEKSRTMSSLRHRVLPPQILLKCPKEASFCLWLLHPEPTCRPSMSDLLQSEFITEPRDNLEEREAAIELRDRIEEQESLLEFLLLIQQRKQESAYRLQDTVSLLSSDIEQVVKRQLILKKRGSSLSDFSKDDHQYTSGQPLMSFQANEEPSAFLASRKRVRQGILALENGVEVDEESQGSTLLESSRLMRNFKKLESVYFLTRRRQMKAAASGKSLTRHSPLSSENGRGSMIVSEKSSVSNPVAPKAFFNNDSRQGGWIDPFLEGLCRYLSFSQLRVKADLKQGDLLNSSNLVCALAFDREGELFATAGVNKKIKIFECNSIVNDNRDIHYPVVELAGRSKLSSLCWNSYIKSQIASSNFDGVVQIWDVARSQLVTEMKEHKKRVWSIDISSADPTLLASGSDDGTVKLWSINQGVSIGTIKTKANVCCVQFPSDSGRSLAFGSADHKVYYYDLRNPKIPLCTMIGHSKTVSYVKFVDSSTLVSSSTDNTLKLWDLSMSASGINESPLHSFTGHTNLKNFVGLSVSDGYIATGSETNEVFVYHKAFPMPVMSYMFNNTDSMSGLEVDDASQFISSICWRGQSSTLVAANSNGNIKILEMMT
4 | binds | binds | – | REVEILLE 4 (RVE4) (protein, UniProt Q6R0G4 1-293) MTSTNPVVAEVIPAETSTDATETTIATTEAGEAPEKKVRKAYTITKSRESWTEGEHDKFLEALQLFDRDWKKIEDFVGSKTVIQIRSHAQKYFLKVQKNGTLAHVPPPRPKRKAAHPYPQKASKNAQMSLHVSMSFPTQINNLPGYTPWDDDTSALLNIAVSGVIPPEDELDTLCGAEVDVGSNDMISETSPSASGIGSSSRTLSDSKGLRLAKQAPSMHGLPDFAEVYNFIGSVFDPDSKGRMKKLKEMDPINFETVLLLMRNLTVNLSNPDFEPTSEYVDAAEEGHEHLSS
5 | binds | binds | – | REVEILLE 3 (RVE3) (protein, UniProt Q6R0H0 1-287) MVTVNPSQAHCLPMKMSLPGFNTLPHTATTIPVSIRSNRTMSFFEDPTKKVRKPYTITKSRENWTEQEHDKFLEALHLFDRDWKKIKAFVGSKTVIQIRSHAQKYFLKVQKNGTKEHLPPPRPKRKANHPYPQKAPKFTLSSSNALFQHDYLYNTNSHPVISTTRKHGLVHCDVSIPSSVIKEEFGVSENCCSTSSSRDKQRTRIVTETNDQESCGKPHRVAPNFAEVYNFIGSVFDPKTTGHVKRLKEMDPINLETVLLLMKNLSVNLTSPEFDEQRKLISSYNAS
6 | – | – | binds | SPA4 (protein, UniProt Q94BM7 1-794) MKGSSESSSRGLNNTSGVSEFCTDGSKSLSHIDYVRSLLGSHKEANLGGLDDDSIVRALECEDVSLRQWLDNPDRSVDAFECFHVFRQIVEIVNAAHSQGIVVHNVRPSCFVMSSFNNVSFIESASCSDSGSDEDATTKSREIGSSRQEEILSERRSKQQEEVKKQPFPMKQILAMEMSWYTSHEEDNGSLCNCASDIYRLGVLLFELFCPVSSREEKSRTMSSLRHRVLPPQILLNWPKEASFCLWLLHPEPSCRPSMSELLQSEFINEPRENLEEREAAMELRDRIEEQELLLEFLFLIQQRKQEAADKLQDTISLLSSDIDQVVKRQLVLQQKGRDVRSFLASRKRIRQGAETTAAEEENDDNSIDEESKLDDTLESTLLESSRLMRNLKKLESVYFATRYRQIKAATAAEKPLARYYSALSCNGRSSEKSSMSQPSKDPINDSRQGGWIDPFLEGLCKYLSFSKLRVKADLKQGDLLNSSNLVCAIGFDRDGEFFATAGVNKKIKIFECESIIKDGRDIHYPVVELASRSKLSGICWNSYIKSQVASSNFEGVVQVWDVARNQLVTEMKEHEKRVWSIDYSSADPTLLASGSDDGSVKLWSINQGVSIGTIKTKANICCVQFPSETGRSLAFGSADHKVYYYDLRNPKLPLCTMIGHHKTVSYVRFVDSSTLVSSSTDNTLKLWDLSMSISGINETPLHSFMGHTNVKNFVGLSVSDGYIATGSETNEVFVYHKAFPMPVLSYKFKTIDPVSELEVDDASQFISSVCWRGQSSTLVAANSTGNIKILEMV
